Measured values taken from patent EP1167342A1, “Novel substituted nitrocatechols, their use in the treatment of some central and peripheral nervous system disorders and pharmaceutical compositions containing them” (Portela & Ca., S.A., priority 2000, dated 2002).
Some of these results come from one statement about several compounds together.

System: Liver COMT
Test: Ex vivo COMT activity in mouse liver homogenates after administration of test compound by gastric tube
Parameters: species or system NMRI mice
Conditions: for time at which the maximal inhibitory effect is achieved: liver COMT, after oral administration; for inhibition of liver COMT: mice, oral administration, statement in words

SMILES | time at which the maximal inhibitory effect is achieved [h] | inhibition of liver COMT
CCN(CC)C(C)C(=O)c1cc(O)c(O)c([N+](=O)[O-])c1.Cl (stereo not shown) [Compound 7, 2-Diethylamino-1-(3,4-dihydroxy-5-nitro-phenyl)-propan-1-one hydrochloride] | ≤ 1 | potent inhibitors of liver COMT
Cl.N#CC1(c2ccccc2)CCN(CCC(=O)c2cc(O)c(O)c([N+](=O)[O-])c2)CC1 [Compound 15, 1-[3-(3,4-Dihydroxy-5-nitro-phenyl)-3-oxo-propyl]-4-phenyl-piperidine-4-carbonitrile hydrochloride] | ≤ 1 | potent inhibitors of liver COMT
